Reference: patent publication US20080171343A1 (UNIVERSITY OF MANCHESTER, published 2008)
No constants are given. Whether binding was seen depends on the method and setting. Some binding calls cover weakened binding; strength is not graded here.

The chains behind the UniProt entries cited, without tags or fusion partners. Residues count along the entry.
UniProt P08603, residues 19-1231: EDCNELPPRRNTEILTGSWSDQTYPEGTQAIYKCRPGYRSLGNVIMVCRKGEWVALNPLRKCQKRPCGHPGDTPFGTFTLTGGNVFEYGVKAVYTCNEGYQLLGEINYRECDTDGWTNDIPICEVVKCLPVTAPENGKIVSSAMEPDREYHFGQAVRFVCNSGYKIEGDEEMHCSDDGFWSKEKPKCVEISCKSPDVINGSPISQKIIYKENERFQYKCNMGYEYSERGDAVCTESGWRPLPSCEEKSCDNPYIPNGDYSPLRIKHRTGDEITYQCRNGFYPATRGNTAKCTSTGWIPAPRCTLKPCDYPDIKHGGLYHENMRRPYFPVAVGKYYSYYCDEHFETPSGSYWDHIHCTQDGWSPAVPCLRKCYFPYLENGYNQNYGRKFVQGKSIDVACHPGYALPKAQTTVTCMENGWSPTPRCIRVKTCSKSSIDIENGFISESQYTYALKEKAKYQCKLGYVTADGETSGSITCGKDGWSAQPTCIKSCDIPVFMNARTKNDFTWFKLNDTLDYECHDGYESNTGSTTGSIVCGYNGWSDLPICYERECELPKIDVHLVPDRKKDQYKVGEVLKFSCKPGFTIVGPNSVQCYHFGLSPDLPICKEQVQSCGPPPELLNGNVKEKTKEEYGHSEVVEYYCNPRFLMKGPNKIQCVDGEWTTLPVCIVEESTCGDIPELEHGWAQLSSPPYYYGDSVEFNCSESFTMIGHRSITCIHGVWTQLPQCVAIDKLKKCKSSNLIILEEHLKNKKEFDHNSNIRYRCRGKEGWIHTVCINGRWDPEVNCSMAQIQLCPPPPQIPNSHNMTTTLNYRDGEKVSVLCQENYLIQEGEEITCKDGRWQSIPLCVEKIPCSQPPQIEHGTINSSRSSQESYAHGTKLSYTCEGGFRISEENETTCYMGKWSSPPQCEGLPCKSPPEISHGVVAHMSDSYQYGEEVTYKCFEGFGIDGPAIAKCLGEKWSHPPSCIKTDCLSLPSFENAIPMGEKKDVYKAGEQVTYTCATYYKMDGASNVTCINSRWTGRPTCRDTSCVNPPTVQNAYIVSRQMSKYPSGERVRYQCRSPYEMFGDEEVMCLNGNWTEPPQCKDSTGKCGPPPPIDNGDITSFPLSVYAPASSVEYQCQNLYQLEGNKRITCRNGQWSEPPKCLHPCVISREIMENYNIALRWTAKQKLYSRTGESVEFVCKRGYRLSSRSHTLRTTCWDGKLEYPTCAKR

Key:
fibromodulin [1] = target: T1, fibromodulin (bovine, UniProt P13605 19-376, glycosylated (N-linked oligosaccharides including keratan sulphate), as isolated); assay: plate assay: untreated (glycosylated) FMOD coated on microtitre wells, full length FH in fluid phase, detection with polyclonal anti-FH antibody, A490
T1 construct: Isolated from tissue; coated on microtitre plates at 10 ug/ml; also called FMOD; untreated (glycosylated) FMOD
T1 sequence (looked up): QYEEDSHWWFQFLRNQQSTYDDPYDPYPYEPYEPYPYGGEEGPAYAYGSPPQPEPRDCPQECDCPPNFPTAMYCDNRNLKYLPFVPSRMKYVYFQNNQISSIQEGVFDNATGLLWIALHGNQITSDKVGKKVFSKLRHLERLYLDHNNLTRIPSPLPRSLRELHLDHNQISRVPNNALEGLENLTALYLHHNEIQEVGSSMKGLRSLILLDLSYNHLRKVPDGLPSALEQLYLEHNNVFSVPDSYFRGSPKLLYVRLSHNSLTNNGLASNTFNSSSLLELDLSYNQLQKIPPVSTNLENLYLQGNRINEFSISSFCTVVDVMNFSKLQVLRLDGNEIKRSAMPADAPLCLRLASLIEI

fibromodulin [2] = target: T1, fibromodulin; assay: microtitre plate assay, FMOD coated, full length FH detected with polyclonal anti-FH antibody
fibromodulin [3] = target: T1, fibromodulin; assay: plate assay: FMOD coated on microtitre wells at 10 ug/ml, unlabelled protein in fluid phase, detection with polyclonal anti-FH antibody, A490, background subtracted

binding (fibromodulin [1]): binds
binding (fibromodulin [2]): binds
binding (fibromodulin [3]): binds
Substance: full length Factor H (from UniProt P08603 19-1231)
